Experiment [1] concerns the target 14–3-3ξ, endogenous (human (endogenous in BxPC-3)). Briefly: co-IP; BxPC-3 cells transfected with control vectors or Flag-FHL1 vectors; IP by anti-14–3-3ξ or IgG, Western blot.
Experiment [2] concerns the target Flag-tagged four-and-a-half LIM domain protein 1 (FHL1) (human) (UniProt Q13642). Description: co-IP; BxPC-3 cells transfected with Flag-FHL1 vectors; anti-Flag IP, Western blot.

By UniProt entry, the sequences of proteins in these tests, tags left out. Where a name states a change or a piece, a line headed by the entry shows the natural chain unless it says otherwise.
UniProt Q13642: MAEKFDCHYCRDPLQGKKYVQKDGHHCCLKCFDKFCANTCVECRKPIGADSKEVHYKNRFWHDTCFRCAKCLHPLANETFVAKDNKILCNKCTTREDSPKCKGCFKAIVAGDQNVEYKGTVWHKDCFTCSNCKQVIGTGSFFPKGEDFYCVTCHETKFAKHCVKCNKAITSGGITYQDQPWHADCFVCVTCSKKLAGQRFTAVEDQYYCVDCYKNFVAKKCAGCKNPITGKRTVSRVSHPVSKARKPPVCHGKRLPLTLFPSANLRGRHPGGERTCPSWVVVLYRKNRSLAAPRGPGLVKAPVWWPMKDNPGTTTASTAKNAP

These are yes or no findings as the source states them, for the method shown. In cells and extracts the contact can be indirect. A result given as binding can be weak or reduced; the word gives no strength.

B1: Cell division cycle 25A (CDC25A), endogenous (protein, UniProt P30304 1-524)
chain: MELGPEPPHRRRLLFACSPPPASQPVVKALFGASAAGGLSPVTNLTVTMDQLQGLGSDYEQPLEVKNNSNLQRMGSSESTDSGFCLDSPGPLDSKENLENPMRRIHSLPQKLLGCSPALKRSHSDSLDHDIFQLIDPDENKENEAFEFKKPVRPVSRGCLHSHGLQEGKDLFTQRQNSAPARMLSSNERDSSEPGNFIPLFTPQSPVTATLSDEDDGFVDLLDGENLKNEEETPSCMASLWTAPLVMRTTNLDNRCKLFDSPSLCSSSTRSVLKRPERSQEESPPGSTKRRKSMSGASPKESTNPEKAHETLHQSLSLASSPKGTIENILDNDPRDLIGDFSKGYLFHTVAGKHQDLKYISPEIMASVLNGKFANLIKEFVIIDCRYPYEYEGGHIKGAVNLHMEEEVEDFLLKKPIVPTDGKRVIVVFHCEFSSERGPRMCRYVRERDRLGNEYPKLHYPELYVLKGGYKEFFMKCQSYCEPPSYRPMHHEDFKEDLKKFRTKSRTWAGEKSKREMYSRLKKL
As to B1, the binding entry in experiment [1] and in experiment [2] was “binds” in each case.

B2: CDC25C, endogenous (protein, UniProt P30307 1-473)
chain: MSTELFSSTREEGSSGSGPSFRSNQRKMLNLLLERDTSFTVCPDVPRTPVGKFLGDSANLSILSGGTPKRCLDLSNLSSGEITATQLTTSADLDETGHLDSSGLQEVHLAGMNHDQHLMKCSPAQLLCSTPNGLDRGHRKRDAMCSSSANKENDNGNLVDSEMKYLGSPITTVPKLDKNPNLGEDQAEEISDELMEFSLKDQEAKVSRSGLYRSPSMPENLNRPRLKQVEKFKDNTIPDKVKKKYFSGQGKLRKGLCLKKTVSLCDITITQMLEEDSNQGHLIGDFSKVCALPTVSGKHQDLKYVNPETVAALLSGKFQGLIEKFYVIDCRYPYEYLGGHIQGALNLYSQEELFNFFLKKPIVPLDTQKRIIIVFHCEFSSERGPRMCRCLREEDRSLNQYPALYYPELYILKGGYRDFFPEYMELCEPQSYCPMHHQDHKTELLRCRSQSKVQEGERQLREQIALLVKDMSP
As for B2, in experiment [2], the binding entry is “binds”.

For the origin of these results see paper PMC10547647.
